Taken from: PubChem BioAssay AID1224828 (NIAID, 2016)
Test: 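Find genes required for NF-kappaB p65 moving into the nucleus after LPS in mouse macrophages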 (primary screen). Cells: mouse RAW264.7 G9 macrophage reporter cells (GFP-p65, Tnf promoter-mCherry). Reagent: siRNA pool against mouse genes, 100 nM. Duration: 2 days siRNA transfection, then 40 min LPS before fixation. Treatment: LPS (Salmonella minnesota R595) at 10 ng/ml. Read-out: 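Microscopy ratio of nuclear to perinuclear-ring GFP-p65 signal, scaled to the plate median; gene score is the average of two replicate robust z-scores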. Direction: p65 translocation robust z-score: higher = more nuclear NF-kappaB p65 after LPS than the plate median; nuclear/cytoplasmic p65 ratio: higher = more nuclear NF-kappaB p65. Active means: 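Called active when z exceeds 3.3 or falls under -1.56 (median of Tlr4 controls), giving activity score of at least 50; no calls for control wells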. Meaning of the calls: active = hit (p65 shift raised or lowered); inactive = no clear change.
The whole screen tested about 17,000 reagents; shown is an unselected part. In the full data, 762 (4.5%) are marked active. 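Active calls include both raised and lowered p65 entry, mostly lowered; wells with fewer than 50 cells lack a z-score.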 Raw values are not corrected between plates. Reagent sequences are not shown.

| gene knocked down | p65 translocation robust z-score | nuclear/cytoplasmic p65 ratio, rep 1 | nuclear/cytoplasmic p65 ratio, rep 2 | low cell count flag | Call |
| --- | --- | --- | --- | --- | --- |
| Or2p2 | 0.71 | 1.6 | 1.7 | enough cells to score | inactive |
| Tll1 | -0.28 | 1.42 | 1.54 | enough cells to score | inactive |
| Afm | -1.04 | 1.43 | 1.54 | enough cells to score | inactive |
| Chil6 | 1.02 | 1.61 | 1.62 | enough cells to score | inactive |
| Sdcbp2 | 1.26 | 1.62 | 1.34 | enough cells to score | inactive |
| Adora1 | -1.68 | 1.33 | 1.28 | enough cells to score | active |
| Crtap | -1.22 | 1.31 | 1.68 | enough cells to score | inactive |
| Fbln5 | -0.89 | 1.28 | 1.31 | enough cells to score | inactive |
| Pola2 | -0.02 | 1.4 | 1.2 | enough cells to score | inactive |
| Rab6b | – | 1.64 | 1.51 | fewer than 50 cells per well; well left out of scoring | inactive |
| Cyp1b1 | 0.42 | 1.59 | 1.38 | enough cells to score | inactive |
| Apbb2 | 0.91 | 1.59 | 1.78 | enough cells to score | inactive |
| 2410002F23Rik | – | 1.22 | 1.16 | fewer than 50 cells per well; well left out of scoring | inactive |

Sorted by “p65 translocation robust z-score” (high to low): 2 of the entries above
| gene knocked down | p65 translocation robust z-score | nuclear/cytoplasmic p65 ratio, rep 1 | nuclear/cytoplasmic p65 ratio, rep 2 | low cell count flag | Call |
| --- | --- | --- | --- | --- | --- |
| Fbln5 | -0.89 | 1.28 | 1.31 | enough cells to score | inactive |
| Crtap | -1.22 | 1.31 | 1.68 | enough cells to score | inactive |

The listing continues:
| gene knocked down | p65 translocation robust z-score | nuclear/cytoplasmic p65 ratio, rep 1 | nuclear/cytoplasmic p65 ratio, rep 2 | low cell count flag | Call |
| --- | --- | --- | --- | --- | --- |
| Rab32 | -0.32 | 1.47 | 1.47 | enough cells to score | inactive |
| Pus10 | 0.12 | 1.33 | 1.52 | enough cells to score | inactive |
| Gdpgp1 | 0.4 | 1.57 | 1.66 | enough cells to score | inactive |
| Xrcc2 | 0.47 | 1.6 | 1.55 | enough cells to score | inactive |
| Prss59 | – | 1.14 | 1.08 | fewer than 50 cells per well; well left out of scoring | inactive |
| Zpld1 | 1.27 | 1.52 | 1.8 | enough cells to score | inactive |
| Or52p1 | 0.09 | 1.47 | 1.27 | enough cells to score | inactive |
| Arhgef15 | 0.07 | 1.42 | 1.42 | enough cells to score | inactive |
| Ebf4 | -0.71 | 1.36 | 1.28 | enough cells to score | inactive |
| 9130230L23Rik | -0.02 | 1.45 | 1.52 | enough cells to score | inactive |
| Pwp1 | -0.19 | 1.32 | 1.3 | enough cells to score | inactive |
